Test results taken from patent US20230366033A1, “METHODS FOR TREATING CANCERS WITH INHIBITORS TARGETING THE ROLE OF GRB2 IN DNA REPAIR” (Board of Regents, The University of Texas System, priority 2020, published 2023).
These are yes or no findings as the source states them, for the method shown. For some of these results: In cells and extracts the contact can be indirect. Some binding calls cover weakened binding; strength is not graded here.

Protein sequences, listed by entry. Tags and fused reporters are not part of them.
UniProt P27694: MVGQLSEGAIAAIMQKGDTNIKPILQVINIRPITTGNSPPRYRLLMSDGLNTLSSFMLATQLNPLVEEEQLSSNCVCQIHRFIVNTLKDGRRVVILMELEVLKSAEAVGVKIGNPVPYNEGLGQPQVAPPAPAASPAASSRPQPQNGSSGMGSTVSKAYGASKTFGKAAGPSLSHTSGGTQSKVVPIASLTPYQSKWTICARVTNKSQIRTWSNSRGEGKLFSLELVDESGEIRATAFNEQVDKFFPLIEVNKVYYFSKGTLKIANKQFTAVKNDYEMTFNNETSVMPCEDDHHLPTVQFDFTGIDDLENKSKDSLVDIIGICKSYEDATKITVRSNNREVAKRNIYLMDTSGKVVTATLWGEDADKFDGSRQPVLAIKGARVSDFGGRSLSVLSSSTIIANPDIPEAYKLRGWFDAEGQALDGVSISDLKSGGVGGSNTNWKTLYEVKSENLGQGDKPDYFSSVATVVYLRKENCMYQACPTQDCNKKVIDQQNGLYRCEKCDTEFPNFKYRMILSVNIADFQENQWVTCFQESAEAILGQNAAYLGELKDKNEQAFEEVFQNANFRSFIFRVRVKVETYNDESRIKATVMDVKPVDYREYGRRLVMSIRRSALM

Tests used:
[1] = biological target: T1, Human MRE11 core (residues 1-411), bacterially expressed and purified (human) (UniProt P49959); assay: GST pull-down of bacterially expressed, purified human MRE11, western blot [panel C]
T1 sequence (looked up): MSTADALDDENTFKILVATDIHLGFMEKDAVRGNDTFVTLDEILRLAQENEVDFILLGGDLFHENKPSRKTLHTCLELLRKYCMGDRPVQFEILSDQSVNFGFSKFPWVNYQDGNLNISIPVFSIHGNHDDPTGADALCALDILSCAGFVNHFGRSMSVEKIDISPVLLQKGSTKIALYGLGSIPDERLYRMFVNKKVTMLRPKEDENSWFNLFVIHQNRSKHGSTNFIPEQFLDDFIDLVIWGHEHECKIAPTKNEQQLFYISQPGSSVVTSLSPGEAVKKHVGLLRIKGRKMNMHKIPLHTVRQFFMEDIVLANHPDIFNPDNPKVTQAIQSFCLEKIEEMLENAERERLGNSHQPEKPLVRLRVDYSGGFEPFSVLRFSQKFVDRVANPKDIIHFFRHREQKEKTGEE

[2] = biological target: T1, Human MRE11 core (residues 1-411), bacterially expressed and purified (human); assay: GST pulldown of bacterially purified MRE11
[3] = biological target: RPA70, endogenous, in HEK293T cell extracts (UniProt P27694); assay: GST pull-down from HEK293T cell extracts, western blot [panel B]
[4] = biological target: RPA70, endogenous, in HEK293T cell extracts (UniProt P27694); assay: GST-SH domain pulldown from HEK293T cell extracts, western blot
[5] = biological target: T2, MRE11, endogenous, in extracts of human cell lines (HEK293T, HeLa, U2OS) (UniProt P49959); assay: Strep-Tactin precipitation from HEK293T cells, untreated or 5 Gy IR, western blot [panel E]
T2 sequence (looked up): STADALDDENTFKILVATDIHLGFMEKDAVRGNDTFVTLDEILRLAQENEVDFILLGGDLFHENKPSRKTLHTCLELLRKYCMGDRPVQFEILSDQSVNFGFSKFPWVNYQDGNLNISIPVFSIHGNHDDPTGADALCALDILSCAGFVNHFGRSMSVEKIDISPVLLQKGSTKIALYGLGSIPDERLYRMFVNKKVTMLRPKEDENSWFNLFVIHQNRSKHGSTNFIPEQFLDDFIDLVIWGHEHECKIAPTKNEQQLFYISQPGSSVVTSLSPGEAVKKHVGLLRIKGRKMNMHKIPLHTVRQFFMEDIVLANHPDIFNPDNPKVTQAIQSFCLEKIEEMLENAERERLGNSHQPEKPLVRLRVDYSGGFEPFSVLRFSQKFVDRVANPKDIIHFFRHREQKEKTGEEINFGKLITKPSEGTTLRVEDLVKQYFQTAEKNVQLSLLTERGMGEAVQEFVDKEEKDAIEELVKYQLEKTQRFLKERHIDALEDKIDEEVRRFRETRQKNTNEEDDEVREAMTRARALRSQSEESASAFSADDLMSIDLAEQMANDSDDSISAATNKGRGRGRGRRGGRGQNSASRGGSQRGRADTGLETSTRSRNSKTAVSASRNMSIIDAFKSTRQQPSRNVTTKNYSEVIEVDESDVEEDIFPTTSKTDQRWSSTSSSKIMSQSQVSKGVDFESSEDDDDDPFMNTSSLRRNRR

Row | binding [1] | binding [2] | binding [3] | binding [4] | binding [5] | Substance
1 | binds | binds | – | – | – | GST-fused GRB2 C-terminal SH3 (cSH3) domain (from UniProt P62993 156-217)
2 | – | – | binds | binds | – | GST-fused GRB2 N-terminal SH3 (nSH3) domain (from UniProt P62993 1-58)
3 | binds | binds | – | – | – | GST-fused GRB2 SH2 domain (from UniProt P62993 60-152)
4 | – | – | – | – | binds | Strep-tagged GRB2 DF/AA mutant expressed in HEK293T cells (from UniProt P62993 1-217)
